Reference: PMC4045235
Results are given in words; binding and its absence hold for the method and conditions named. In cells and extracts the contact can be indirect. Some entries that bind do so weakly or less than the wild type.

By UniProt entry, the sequences of proteins in these tests, tags left out.
UniProt Q14999: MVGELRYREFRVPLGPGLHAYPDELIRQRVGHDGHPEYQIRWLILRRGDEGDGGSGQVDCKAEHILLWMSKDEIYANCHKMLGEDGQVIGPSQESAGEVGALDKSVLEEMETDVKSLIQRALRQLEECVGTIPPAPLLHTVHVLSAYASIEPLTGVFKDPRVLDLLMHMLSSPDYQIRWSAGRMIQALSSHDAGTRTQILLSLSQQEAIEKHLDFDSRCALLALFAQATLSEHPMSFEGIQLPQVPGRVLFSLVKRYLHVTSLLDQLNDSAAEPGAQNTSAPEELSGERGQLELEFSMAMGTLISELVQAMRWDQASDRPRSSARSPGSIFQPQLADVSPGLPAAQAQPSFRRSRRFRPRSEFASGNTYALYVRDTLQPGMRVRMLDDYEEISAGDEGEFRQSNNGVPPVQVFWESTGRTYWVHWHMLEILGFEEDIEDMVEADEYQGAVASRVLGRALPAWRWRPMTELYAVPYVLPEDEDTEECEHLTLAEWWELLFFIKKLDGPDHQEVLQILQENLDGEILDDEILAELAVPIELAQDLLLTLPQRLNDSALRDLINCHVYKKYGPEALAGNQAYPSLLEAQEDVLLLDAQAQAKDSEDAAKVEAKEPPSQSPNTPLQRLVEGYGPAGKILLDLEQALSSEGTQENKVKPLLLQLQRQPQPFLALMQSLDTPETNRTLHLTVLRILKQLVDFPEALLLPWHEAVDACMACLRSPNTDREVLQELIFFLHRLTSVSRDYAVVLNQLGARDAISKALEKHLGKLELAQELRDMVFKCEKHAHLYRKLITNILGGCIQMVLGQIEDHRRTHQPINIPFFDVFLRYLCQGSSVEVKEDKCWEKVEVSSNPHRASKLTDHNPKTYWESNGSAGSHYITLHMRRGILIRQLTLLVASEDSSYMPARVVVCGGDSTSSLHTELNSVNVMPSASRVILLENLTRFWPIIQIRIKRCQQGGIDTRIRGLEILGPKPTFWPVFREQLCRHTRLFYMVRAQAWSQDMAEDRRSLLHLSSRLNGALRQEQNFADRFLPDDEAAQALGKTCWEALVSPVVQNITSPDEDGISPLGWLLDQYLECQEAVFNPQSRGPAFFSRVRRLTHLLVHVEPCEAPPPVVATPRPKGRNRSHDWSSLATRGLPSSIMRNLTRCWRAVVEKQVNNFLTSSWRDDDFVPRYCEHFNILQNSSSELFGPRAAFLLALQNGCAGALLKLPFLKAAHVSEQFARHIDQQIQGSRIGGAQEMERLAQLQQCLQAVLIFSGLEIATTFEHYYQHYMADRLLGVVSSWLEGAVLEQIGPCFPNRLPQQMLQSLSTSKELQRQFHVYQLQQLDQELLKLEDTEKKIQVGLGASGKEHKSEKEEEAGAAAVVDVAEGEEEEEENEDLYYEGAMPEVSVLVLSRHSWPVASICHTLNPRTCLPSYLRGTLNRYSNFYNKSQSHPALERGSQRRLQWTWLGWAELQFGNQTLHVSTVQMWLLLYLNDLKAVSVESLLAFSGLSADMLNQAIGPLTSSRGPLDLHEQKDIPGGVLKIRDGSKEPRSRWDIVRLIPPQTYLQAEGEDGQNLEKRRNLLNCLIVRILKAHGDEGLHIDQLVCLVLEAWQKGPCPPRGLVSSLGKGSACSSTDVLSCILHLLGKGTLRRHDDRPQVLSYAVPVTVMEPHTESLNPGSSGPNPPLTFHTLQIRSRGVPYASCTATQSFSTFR
UniProt O75147: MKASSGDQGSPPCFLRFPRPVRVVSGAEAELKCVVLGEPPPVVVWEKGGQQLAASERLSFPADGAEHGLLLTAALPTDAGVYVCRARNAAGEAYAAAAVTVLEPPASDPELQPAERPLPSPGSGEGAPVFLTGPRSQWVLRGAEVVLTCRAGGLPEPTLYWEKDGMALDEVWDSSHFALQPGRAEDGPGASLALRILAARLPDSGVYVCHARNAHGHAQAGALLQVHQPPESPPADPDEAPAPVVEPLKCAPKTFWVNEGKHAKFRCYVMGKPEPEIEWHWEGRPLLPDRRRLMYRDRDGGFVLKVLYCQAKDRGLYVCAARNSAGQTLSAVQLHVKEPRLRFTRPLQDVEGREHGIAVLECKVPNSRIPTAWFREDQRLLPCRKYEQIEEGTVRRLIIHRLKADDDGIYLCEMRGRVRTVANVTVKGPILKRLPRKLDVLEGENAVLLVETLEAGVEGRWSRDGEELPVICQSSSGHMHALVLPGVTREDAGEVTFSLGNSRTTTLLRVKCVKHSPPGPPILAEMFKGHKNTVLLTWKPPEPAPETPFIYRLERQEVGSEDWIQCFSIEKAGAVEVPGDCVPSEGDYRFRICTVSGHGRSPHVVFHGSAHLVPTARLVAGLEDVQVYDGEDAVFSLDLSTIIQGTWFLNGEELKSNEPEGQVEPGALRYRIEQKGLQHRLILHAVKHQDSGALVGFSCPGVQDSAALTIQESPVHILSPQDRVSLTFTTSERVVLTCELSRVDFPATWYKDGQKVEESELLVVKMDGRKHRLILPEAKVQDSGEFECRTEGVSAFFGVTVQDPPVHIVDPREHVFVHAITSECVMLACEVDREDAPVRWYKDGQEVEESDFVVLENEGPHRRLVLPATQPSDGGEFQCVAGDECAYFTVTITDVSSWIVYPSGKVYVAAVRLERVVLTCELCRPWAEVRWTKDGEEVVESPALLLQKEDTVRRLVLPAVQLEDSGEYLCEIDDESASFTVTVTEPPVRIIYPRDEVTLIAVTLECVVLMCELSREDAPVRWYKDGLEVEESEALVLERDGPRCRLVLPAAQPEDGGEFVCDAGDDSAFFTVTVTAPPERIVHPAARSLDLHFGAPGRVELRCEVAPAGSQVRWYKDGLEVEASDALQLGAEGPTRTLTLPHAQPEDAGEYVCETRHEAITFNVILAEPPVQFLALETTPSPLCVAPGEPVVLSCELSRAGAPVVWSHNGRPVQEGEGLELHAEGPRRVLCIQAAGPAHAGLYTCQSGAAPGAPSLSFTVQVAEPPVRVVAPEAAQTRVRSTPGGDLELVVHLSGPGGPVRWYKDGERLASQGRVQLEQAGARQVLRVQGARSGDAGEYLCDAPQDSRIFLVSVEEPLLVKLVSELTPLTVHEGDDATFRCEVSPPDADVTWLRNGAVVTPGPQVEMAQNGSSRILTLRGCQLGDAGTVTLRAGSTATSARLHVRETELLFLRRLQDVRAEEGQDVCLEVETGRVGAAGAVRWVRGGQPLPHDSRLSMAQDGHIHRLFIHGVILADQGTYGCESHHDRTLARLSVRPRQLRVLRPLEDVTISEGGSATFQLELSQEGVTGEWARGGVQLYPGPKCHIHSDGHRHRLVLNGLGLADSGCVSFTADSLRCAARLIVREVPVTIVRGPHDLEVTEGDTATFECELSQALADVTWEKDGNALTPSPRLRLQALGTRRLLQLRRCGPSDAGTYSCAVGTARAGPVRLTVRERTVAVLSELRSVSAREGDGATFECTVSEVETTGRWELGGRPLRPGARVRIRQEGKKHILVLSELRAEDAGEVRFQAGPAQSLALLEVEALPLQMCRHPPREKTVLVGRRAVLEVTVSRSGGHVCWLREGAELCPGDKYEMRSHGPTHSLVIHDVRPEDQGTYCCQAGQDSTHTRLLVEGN
UniProt P13010: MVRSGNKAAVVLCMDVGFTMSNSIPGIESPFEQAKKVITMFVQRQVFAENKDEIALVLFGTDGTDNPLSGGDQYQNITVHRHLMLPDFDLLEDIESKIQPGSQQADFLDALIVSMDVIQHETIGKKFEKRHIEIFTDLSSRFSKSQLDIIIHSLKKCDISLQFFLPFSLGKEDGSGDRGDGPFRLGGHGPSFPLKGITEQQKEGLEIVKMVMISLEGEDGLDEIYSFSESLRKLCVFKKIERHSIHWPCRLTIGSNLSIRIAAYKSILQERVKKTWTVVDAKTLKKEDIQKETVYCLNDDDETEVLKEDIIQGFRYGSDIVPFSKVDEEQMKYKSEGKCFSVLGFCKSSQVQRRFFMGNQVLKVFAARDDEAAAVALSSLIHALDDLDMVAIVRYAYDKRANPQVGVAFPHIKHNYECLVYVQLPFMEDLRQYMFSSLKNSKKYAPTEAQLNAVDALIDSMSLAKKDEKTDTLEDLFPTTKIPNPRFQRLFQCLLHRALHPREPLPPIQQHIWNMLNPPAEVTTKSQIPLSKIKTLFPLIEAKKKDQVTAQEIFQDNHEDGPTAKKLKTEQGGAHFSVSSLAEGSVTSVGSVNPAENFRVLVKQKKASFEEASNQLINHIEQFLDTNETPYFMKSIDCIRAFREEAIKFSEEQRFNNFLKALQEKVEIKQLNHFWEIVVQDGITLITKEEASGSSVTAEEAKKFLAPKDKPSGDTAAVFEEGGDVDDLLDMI

T1: CCDC8 (UniProt Q9H0W5)
T1 sequence: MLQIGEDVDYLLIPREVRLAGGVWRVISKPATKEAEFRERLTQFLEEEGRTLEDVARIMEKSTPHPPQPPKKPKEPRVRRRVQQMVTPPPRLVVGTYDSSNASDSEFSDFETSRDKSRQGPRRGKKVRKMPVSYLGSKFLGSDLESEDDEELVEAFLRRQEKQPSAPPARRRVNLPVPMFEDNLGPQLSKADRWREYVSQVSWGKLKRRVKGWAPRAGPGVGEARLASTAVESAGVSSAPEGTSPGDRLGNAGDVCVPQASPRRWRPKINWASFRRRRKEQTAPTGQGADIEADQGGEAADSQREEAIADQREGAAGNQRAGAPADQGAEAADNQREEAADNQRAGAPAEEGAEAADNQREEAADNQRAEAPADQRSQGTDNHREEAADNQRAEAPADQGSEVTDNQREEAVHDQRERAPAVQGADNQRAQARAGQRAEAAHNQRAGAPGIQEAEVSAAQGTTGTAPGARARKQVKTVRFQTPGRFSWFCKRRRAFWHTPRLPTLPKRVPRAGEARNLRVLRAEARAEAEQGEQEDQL


Tests used:
Assay in all cases: co-IP; confirmatory IPs from lysates of HEK293 cells transfected with CUL7, V5-OBSL1 or CCDC8, with antibodies to CUL7, V5 or CCDC8; no antibody IP as negative control; immunoblot of endogenous partners
CCDC8 = target: T1, CCDC8
CUL7 = CUL7 (UniProt Q14999)
V5-OBSL1 = V5-OBSL1 (UniProt O75147)

| Molecule | binding (CCDC8) | binding (CUL7) | binding (V5-OBSL1) |
| --- | --- | --- | --- |
| XRCC5 (from UniProt P13010 1-732) | binds | binds | binds |
| TP53 (from UniProt P04637 1-393) | binds |  | binds |
| CCT2 (protein, UniProt P78371 1-535) MASLSLAPVNIFKAGADEERAETARLTSFIGAIAIGDLVKSTLGPKGMDKILLSSGRDASLMVTNDGATILKNIGVDNPAAKVLVDMSRVQDDEVGDGTTSVTVLAAELLREAESLIAKKIHPQTIIAGWREATKAAREALLSSAVDHGSDEVKFRQDLMNIAGTTLSSKLLTHHKDHFTKLAVEAVLRLKGSGNLEAIHIIKKLGGSLADSYLDEGFLLDKKIGVNQPKRIENAKILIANTGMDTDKIKIFGSRVRVDSTAKVAEIEHAEKEKMKEKVERILKHGINCFINRQLIYNYPEQLFGAAGVMAIEHADFAGVERLALVTGGEIASTFDHPELVKLGSCKLIEEVMIGEDKLIHFSGVALGEACTIVLRGATQQILDEAERSLHDALCVLAQTVKDSRTVYGGGCSEMLMAHAVTQLANRTPGKEAVAMESYAKALRMLPTIIADNAGYDSADLVAQLRAAHSEGNTTAGLDMREGTIGDMAILGITESFQVKRQVLLSAAEAAEVILRVDNIIKAAPRKRVPDHHPC | binds | binds | binds |
